Experimental findings from ChEMBL document CHEMBL1145649, “Novel HCV NS5B polymerase inhibitors derived from 4-(1',1'-dioxo-1',4'-dihydro-1'lambda6-benzo[1',2',4']thiadiazin-3'-yl)-5-hydroxy-2H-pyridazin-3-ones: Part 4. Optimization of DMPK properties” (Bioorg Med Chem Lett, 2008) are described below.

The nature of this data set: physchem. The note with it: buffer, pH 7.4.

Broadly, the solubility is how much of the substance goes into solution per volume. As for `CC(C)(C)CCn1nc(C2=CCCC2)c(O)c(C2=NS(=O)(=O)c3cc(NS(C)(=O)=O)ccc3N2)c1=O`, the solubility was above 100 µM.
As for `CC(C)CCn1nc(CC2CCCC2)c(O)c(C2=NS(=O)(=O)c3cc(NS(C)(=O)=O)ccc3N2)c1=O`, the figure is above 100 µM.
